US20210154165A1
No constants are given. Whether binding was seen depends on the method and setting. In cells and extracts the contact can be indirect. Some binding calls cover weakened binding; strength is not graded here.

Amino acid sequences for entries named in this document (tags omitted). Residues count along the entry.
UniProt P27708, residues 2-2225: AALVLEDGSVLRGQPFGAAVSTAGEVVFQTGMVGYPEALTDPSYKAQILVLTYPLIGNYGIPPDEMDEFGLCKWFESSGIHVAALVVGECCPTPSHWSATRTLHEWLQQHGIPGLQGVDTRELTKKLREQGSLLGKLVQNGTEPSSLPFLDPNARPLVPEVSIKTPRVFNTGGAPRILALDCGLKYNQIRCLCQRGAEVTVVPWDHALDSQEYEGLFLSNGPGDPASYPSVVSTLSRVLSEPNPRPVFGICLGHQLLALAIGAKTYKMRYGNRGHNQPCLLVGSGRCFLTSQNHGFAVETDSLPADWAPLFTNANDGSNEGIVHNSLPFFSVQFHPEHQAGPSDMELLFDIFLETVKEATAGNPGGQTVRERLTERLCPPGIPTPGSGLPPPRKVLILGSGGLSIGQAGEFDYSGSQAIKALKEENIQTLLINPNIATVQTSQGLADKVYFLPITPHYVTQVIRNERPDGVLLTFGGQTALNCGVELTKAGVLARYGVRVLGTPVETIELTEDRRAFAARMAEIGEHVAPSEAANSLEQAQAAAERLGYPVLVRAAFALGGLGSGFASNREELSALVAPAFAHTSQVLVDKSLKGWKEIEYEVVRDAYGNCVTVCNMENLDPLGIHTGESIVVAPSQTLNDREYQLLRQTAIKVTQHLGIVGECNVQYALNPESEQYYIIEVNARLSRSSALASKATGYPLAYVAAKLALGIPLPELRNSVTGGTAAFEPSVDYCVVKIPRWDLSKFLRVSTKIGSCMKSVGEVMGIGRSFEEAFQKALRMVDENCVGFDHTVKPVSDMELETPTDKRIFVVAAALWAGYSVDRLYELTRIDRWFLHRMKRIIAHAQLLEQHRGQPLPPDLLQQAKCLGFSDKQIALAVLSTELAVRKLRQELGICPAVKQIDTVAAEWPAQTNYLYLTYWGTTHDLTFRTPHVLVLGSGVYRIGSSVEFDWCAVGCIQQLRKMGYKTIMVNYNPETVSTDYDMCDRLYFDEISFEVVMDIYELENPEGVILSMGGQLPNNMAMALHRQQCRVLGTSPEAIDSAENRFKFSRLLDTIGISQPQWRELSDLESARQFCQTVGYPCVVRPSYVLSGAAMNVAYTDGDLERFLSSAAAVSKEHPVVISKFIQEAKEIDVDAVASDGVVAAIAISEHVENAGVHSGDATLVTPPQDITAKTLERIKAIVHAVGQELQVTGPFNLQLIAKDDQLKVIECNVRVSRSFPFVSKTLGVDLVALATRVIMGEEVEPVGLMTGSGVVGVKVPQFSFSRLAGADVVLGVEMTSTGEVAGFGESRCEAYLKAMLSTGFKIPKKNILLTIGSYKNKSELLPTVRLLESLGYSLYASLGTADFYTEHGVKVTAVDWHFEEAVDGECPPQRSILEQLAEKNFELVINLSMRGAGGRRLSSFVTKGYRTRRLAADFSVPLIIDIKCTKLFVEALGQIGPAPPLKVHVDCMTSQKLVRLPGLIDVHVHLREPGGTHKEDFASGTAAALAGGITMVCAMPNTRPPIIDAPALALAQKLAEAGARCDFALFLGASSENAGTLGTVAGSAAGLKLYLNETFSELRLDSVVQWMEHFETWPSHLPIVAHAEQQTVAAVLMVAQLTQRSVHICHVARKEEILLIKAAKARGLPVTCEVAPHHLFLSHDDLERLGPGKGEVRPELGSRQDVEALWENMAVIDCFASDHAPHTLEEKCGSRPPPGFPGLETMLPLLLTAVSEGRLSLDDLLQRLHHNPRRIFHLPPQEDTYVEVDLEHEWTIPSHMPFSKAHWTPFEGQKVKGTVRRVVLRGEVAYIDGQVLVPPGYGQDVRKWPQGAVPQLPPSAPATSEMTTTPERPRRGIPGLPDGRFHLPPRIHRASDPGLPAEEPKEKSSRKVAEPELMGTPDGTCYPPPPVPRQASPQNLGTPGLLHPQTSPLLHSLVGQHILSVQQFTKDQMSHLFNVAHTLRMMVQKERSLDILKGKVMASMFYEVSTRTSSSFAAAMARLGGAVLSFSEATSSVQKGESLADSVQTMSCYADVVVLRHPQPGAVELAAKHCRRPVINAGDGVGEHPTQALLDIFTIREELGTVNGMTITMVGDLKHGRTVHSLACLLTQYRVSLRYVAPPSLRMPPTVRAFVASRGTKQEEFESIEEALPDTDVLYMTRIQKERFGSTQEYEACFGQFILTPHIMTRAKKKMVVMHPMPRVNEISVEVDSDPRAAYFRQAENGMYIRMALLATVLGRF
UniProt O14497, residues 2-2285: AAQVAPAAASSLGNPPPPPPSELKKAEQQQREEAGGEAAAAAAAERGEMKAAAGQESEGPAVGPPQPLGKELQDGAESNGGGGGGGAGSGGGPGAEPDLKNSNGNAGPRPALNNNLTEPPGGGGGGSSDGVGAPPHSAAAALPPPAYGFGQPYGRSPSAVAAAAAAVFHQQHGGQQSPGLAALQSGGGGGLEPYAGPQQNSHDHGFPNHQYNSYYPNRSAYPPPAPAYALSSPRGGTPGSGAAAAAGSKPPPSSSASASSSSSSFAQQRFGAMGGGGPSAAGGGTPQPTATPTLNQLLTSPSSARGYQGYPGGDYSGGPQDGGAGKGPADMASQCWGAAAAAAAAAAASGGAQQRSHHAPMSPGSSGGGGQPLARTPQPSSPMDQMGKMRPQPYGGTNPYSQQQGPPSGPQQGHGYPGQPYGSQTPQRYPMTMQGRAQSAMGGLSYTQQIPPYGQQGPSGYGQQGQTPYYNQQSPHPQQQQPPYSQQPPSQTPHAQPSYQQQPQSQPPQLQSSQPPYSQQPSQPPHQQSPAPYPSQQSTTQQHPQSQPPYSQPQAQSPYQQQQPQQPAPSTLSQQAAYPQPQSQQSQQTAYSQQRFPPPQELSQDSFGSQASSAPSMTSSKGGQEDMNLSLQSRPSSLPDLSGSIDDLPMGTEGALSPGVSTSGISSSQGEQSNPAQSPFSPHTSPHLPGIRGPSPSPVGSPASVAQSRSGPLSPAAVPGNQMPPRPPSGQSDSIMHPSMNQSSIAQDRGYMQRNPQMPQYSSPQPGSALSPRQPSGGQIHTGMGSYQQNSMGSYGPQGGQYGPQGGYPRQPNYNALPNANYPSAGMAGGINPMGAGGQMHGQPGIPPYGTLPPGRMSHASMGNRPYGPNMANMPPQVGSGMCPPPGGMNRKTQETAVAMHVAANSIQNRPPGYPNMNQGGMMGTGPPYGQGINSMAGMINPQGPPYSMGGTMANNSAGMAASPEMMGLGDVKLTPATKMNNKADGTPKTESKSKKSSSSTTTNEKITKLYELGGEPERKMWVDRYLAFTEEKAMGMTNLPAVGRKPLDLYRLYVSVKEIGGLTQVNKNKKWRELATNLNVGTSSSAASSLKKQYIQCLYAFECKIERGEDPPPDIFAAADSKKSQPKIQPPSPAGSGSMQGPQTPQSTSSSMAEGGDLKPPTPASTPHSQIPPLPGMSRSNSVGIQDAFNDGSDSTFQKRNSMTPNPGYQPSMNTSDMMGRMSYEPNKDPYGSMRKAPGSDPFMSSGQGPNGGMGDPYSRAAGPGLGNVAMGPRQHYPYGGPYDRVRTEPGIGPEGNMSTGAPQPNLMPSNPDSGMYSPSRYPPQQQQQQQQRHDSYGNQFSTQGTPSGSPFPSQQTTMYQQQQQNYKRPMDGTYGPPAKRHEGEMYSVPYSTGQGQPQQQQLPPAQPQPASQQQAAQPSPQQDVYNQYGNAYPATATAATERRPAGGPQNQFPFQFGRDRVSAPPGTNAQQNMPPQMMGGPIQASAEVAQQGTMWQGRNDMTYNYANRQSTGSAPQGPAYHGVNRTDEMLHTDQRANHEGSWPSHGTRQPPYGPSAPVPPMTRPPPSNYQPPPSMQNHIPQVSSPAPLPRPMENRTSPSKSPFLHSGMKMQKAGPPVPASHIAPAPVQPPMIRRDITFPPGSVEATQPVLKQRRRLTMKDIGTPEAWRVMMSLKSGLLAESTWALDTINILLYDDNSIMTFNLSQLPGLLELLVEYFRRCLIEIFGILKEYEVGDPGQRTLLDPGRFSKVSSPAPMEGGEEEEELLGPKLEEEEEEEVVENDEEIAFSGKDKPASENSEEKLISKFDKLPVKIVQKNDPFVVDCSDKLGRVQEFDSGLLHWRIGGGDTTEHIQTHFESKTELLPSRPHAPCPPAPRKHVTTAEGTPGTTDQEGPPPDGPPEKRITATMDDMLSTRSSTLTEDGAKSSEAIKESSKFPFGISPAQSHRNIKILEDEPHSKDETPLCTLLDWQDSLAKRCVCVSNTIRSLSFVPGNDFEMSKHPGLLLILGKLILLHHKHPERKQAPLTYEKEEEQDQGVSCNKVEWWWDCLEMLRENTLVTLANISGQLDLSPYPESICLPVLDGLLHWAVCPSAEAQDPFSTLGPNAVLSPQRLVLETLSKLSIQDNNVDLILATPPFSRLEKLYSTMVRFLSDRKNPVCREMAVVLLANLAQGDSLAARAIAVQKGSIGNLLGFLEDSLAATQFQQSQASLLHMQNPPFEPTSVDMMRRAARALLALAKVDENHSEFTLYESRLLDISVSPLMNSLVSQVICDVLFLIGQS

Legend:
[1] = target: Carbamoyl-phosphate synthetase 2, Aspartate transcarbamoylase, and Dihydroorotase (CAD) (endogenous) (human) (UniProt P27708); assay: co-immunoprecipitation with anti-CAD antibody from ARID1A-wildtype cell lysate, immunoblot (FIG. 1C)
[2] = target: Carbamoyl-phosphate synthetase 2, Aspartate transcarbamoylase, and Dihydroorotase (CAD) (endogenous) (human) (UniProt P27708); assay: reciprocal co-immunoprecipitation with anti-ARID1A and anti-CAD antibodies, immunoblot (FIG. 1B, 1C; ES2 shown, KLE data not shown)
[3] = target: ARID1A (endogenous, ARID1A-wildtype cancer cell lysate) (UniProt O14497); assay: immunoprecipitation of the endogenous ARID1A complex (KLE cells; similar in ES2), SDS-PAGE band, LC-MS/MS (FIG. 1A, FIG. 6)
[4] = target: ARID1A (endogenous, ARID1A-wildtype cancer cell lysate) (UniProt O14497); assay: co-immunoprecipitation with anti-ARID1A antibody from ARID1A-wildtype cell lysate, immunoblot (FIG. 1B)

| Substance | binding [1] | binding [2] | binding [3] | binding [4] |
| --- | --- | --- | --- | --- |
| ARID1A (endogenous, ARID1A-wildtype cancer cell lysate) (from UniProt O14497 2-2285) | binds | binds |  |  |
| Carbamoyl-phosphate synthetase 2, Aspartate transcarbamoylase, and Dihydroorotase (CAD) (endogenous) (from UniProt P27708 2-2225) (enzyme) |  |  | binds | binds |
